Assay results as given in publication PMC2360547, “The multikinase inhibitor midostaurin (PKC412A) lacks activity in metastatic melanoma: a phase IIA clinical and biologic study” (British Journal of Cancer, 2006).
“And” between values parts separate entries of the source, which are not always exact repeats. Equal values may be shown once.

What was measured:
[1] = Tumour tissue concentrations by HPLC with fluorescence detection; assay type: in vivo, human; conditions: tumour tissue to plasma, individual subjects
Description: Plasma concentrations of midostaurin and its two main metabolites CGP 62221 and CGP52421 e2 were determined using an HPLC method with fluorescence detection as reported previously ([Van Gijn et al, 1995]; [Propper et al, 2001]). […] Therefore, the tumour tissue was frozen and cut into as small as possible pieces with a scalpel. The pieces were weighed, added to 1 ml of water, vortexed and thereafter treated like plasma. The assay for plasma samples was validated with acceptable calibration curves, within-study variability and total recovery. The limit of quantitation (LOQ) in these analyses (defined as the concentration of the lowest QC sample with a mean recovery of 80–120% and a CV ⩽20%) was 36 nmol l^−1 for MIDOSTAURIN, 61 nmol l^−1 for CGP 62221, and 265 nmol l^−1 for CGP52421 e2. Due to limited availability of tumour tissue, the within-study validation for tumour assay was not performed. […] The LOQ in tissue homogenate was 48 nmol l^−1 for midostaurin, 82 nmol l^−1 for CGP 62221, and 357 nmol l^−1 for CGP52421 e2.

[2] = test system: PKC; conditions: one patient only (Patient 10), day 28 biopsy
[3] = test system: PKCδ; conditions: read-out: IC50 for PKCδ; no reference given; cited from earlier work
[4] = test system: PKCξ; conditions: read-out: IC50 for PKCξ; no reference given; cited from earlier work

In the case of `CO[C@@H]1[C@H](N(C)C(=O)c2ccccc2)C[C@H]2O[C@]1(C)n1c3ccccc3c3c4c(c5c6ccccc6n2c5c31)C(=O)NC4` [Midostaurin, N-benzoyl-staurosporine], the Tissue/plasma ratios [1] is listed as 0.02 and 0.37 and 0.35 and 0.20 and 1.86 and 0.23 and 0.87 and 0.16 and 1.32, the “Inhibition of PKC activity in both cytosolic and particulate fractions” value [2] is listed as greater than 50% and the IC50 [3] is listed as 0.36 µM. For the same molecule, the IC50 [4] was greater than 1000 µM.
